Measurements reported in PubChem BioAssay AID1259285 (Sanger Institute, 2017)
The deposit covers 794 reagents; below is an unselected part. 20 of them (2.5%) were called active. 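Calls rest on the drug-free arm alone and ignore synergy scores; viability ratios seem to be capped at 1.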 Entries without a mark were called inactive. No sequences are given here. Not stated in the record: the amount of reagent, the time to read-out.

Screen: 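Kinases needed for HCC56 growth and kinases whose loss boosts drug effects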 (primary screen)
Cell system: human HCC56 colorectal cancer cells
Reagents: siRNA pool against human genes
Conditions: DMSO vehicle, or anchor drug BYL719 at 1 µM, cetuximab at 5 µg/ml, or trametinib at 10 nM
Measured: 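Viability as a ratio to non-targeting pool wells, averaged over replicates and turned into a robust z-score; synergy scores with BYL719, cetuximab or trametinib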
Scale: viability robust z-score, no drug: higher = more viable cells, weaker knock-down effect; viability vs non-targeting pool, no drug: higher = more viable cells; synergy score with BYL719: higher = stronger combined killing with BYL719; synergy score with cetuximab: higher = stronger combined killing with cetuximab; synergy score with trametinib: higher = stronger combined killing with trametinib
Call rule: 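Essential when the drug-free viability robust z-score falls below -3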
Meaning of the calls: active = essential without drug; inactive = no change without drug

Target gene | viability robust z-score, no drug | viability vs non-targeting pool, no drug | synergy score with BYL719 | synergy score with cetuximab | synergy score with trametinib
PDGFRL | 0.458 | 1 | -0.112 | -0.142 | 0.0451
STK36 | 0.458 | 1 | -0.0961 | -0.142 | -0.13
AMER1 | 0.458 | 1 | -0.0746 | -0.142 | 0.0274
CDK12 | 0.458 | 1 | -0.162 | -0.134 | -0.0814
KCNH8 | -1.8 | 0.806 | 0.0157 | 0.0885 | 0.0352
ETNK1 | 0.458 | 1 | -0.162 | -0.142 | 0.0599
MED24 | 0.458 | 1 | -0.162 | -0.142 | -0.344
DGKQ | -0.807 | 0.891 | -0.0849 | -0.0858 | -0.107
ACVRL1 | 0.458 | 1 | -0.162 | -0.142 | -0.309
LMTK3 | 0.458 | 1 | -0.0718 | -0.0719 | 0.0534
MATK | 0.458 | 1 | -0.162 | -0.142 | 0.00872
ADCK5 | 0.458 | 1 | -0.162 | -0.142 | -0.114
FES | 0.458 | 1 | -0.162 | -0.142 | -0.0809
BRSK2 | 0.458 | 1 | -0.0552 | 0.142 | 0.00177
BRAF | -0.32 | 0.933 | 0.065 | 0.0531 | 0.071
CSNK1A1 | 0.458 | 1 | -0.0762 | -0.142 | -0.0271
PIK3CB | 0.458 | 1 | -0.0867 | -0.142 | -0.0181
DLG2 | 0.458 | 1 | -0.038 | -0.0786 | 0.00892
PRP4K | -1.97 | 0.792 | -0.0226 | 0.123 | -0.0316
NME6 | -1.04 | 0.871 | -0.175 | -0.134 | -0.14
MKNK2 | 0.458 | 1 | -0.162 | -0.142 | -0.0461
TP53BP1 | 0.458 | 1 | -0.162 | -0.142 | -0.255
MAP3K15 | 0.458 | 1 | -0.00139 | -0.142 | 0.0255
IKBKB | 0.458 | 1 | -0.0474 | -0.142 | 0.0504
MAP2K3 | -0.247 | 0.939 | -0.213 | 0.00365 | -0.0223
CAMKV | 0.458 | 1 | -0.0397 | -0.0933 | 0.078
CDADC1 | 0.458 | 1 | -0.0587 | 0.0451 | 0.0476
CDK9 | 0.458 | 1 | 0.00304 | -0.0276 | 0.0174
AKT3 | 0.458 | 1 | -0.045 | -0.134 | 0.000754
STK4 | 0.458 | 1 | -0.111 | -0.0545 | 0.0925
PLK4 | 0.458 | 1 | -0.128 | -0.0792 | -0.0985
AURKA | -0.975 | 0.877 | 0.0374 | 0.0318 | 0.0624
MAP3K9 | -0.652 | 0.905 | 0.0989 | -0.0401 | -0.0334
SGK3 | -1.37 | 0.843 | -0.0851 | -0.0535 | -0.0137

3 of these entries, reformatted:
| Target gene | viability robust z-score, no drug | viability vs non-targeting pool, no drug | synergy score with BYL719 | synergy score with cetuximab | synergy score with trametinib |
| --- | --- | --- | --- | --- | --- |
| CDK12 | 0.458 | 1 | -0.162 | -0.134 | -0.0814 |
| KCNH8 | -1.8 | 0.806 | 0.0157 | 0.0885 | 0.0352 |
| ETNK1 | 0.458 | 1 | -0.162 | -0.142 | 0.0599 |
